{"source": "paper PMC8384837", "note": "The other results are listed elsewhere or left out. At the low end of the ranking the order means little."}
{"biological_target": "T1, PUM1 PUF domain R3-THE R4-TFR C935T + R936H + Q939E + N971T + H972F + Q975R (UniProt Q14671)", "T1 sequence": "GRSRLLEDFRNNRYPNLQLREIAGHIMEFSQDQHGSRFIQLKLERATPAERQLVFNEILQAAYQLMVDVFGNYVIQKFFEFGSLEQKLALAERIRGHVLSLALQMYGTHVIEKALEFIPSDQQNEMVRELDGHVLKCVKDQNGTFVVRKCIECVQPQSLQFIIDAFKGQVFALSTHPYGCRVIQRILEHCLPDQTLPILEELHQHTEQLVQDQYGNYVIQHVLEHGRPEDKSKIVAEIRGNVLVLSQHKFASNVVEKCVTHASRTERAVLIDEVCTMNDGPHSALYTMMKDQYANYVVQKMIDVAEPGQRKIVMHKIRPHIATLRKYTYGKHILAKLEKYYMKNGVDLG", "details": "yeast three-hybrid, YBZ-1, SC-Leu-His + 0.5 mM 3-AT, 4 days"}
{"sequence": "GGCUAGAACUAGUGGAUCCCCCGGCGCCCGGCGGCUCGAGCCCGGGUAAGAUCCAGUAGUCUGCAUGCCGCCGGGCGCCAUGCCUGCAGGUCGACUCUAGAAAACAUG", "binding signal (log2 enrichment (interaction score))": -6.61}
{"sequence": "GGCUAGAACUAGUGGAUCCCCCGGCGCCCGGCGGCUCGAGCCCGGGUAAGCGAUAGAAGUCUGCAUGCCGCCGGGCGCCAUGCCUGCAGGUCGACUCUAGAAAACAUG", "binding signal (log2 enrichment (interaction score))": -7.5}
{"sequence": "GGCUAGAACUAGUGGAUCCCCCGGCGCCCGGCGGCUCGAGCCCGGGUAAGUUCGCGAAGUCUGCAUGCCGCCGGGCGCCAUGCCUGCAGGUCGACUCUAGAAAACAUG", "binding signal (log2 enrichment (interaction score))": -8.33}
{"sequence": "GGCUAGAACUAGUGGAUCCCCCGGCGCCCGGCGGCUCGAGCCCGGGUAAGUGUAUUUGGUCUGCAUGCCGCCGGGCGCCAUGCCUGCAGGUCGACUCUAGAAAACAUG", "binding signal (log2 enrichment (interaction score))": -6.07}
{"sequence": "GGCUAGAACUAGUGGAUCCCCCGGCGCCCGGCGGCUCGAGCCCGGGUAAGUUUGAGUAGUCUGCAUGCCGCCGGGCGCCAUGCCUGCAGGUCGACUCUAGAAAACAUG", "binding signal (log2 enrichment (interaction score))": -7.34}
{"sequence": "GGCUAGAACUAGUGGAUCCCCCGGCGCCCGGCGGCUCGAGCCCGGGUAAGAGCAAGACGUCUGCAUGCCGCCGGGCGCCAUGCCUGCAGGUCGACUCUAGAAAACAUG", "binding signal (log2 enrichment (interaction score))": "< -6.61"}
{"sequence": "GGCUAGAACUAGUGGAUCCCCCGGCGCCCGGCGGCUCGAGCCCGGGUAAGUGAAAAAGGUCUGCAUGCCGCCGGGCGCCAUGCCUGCAGGUCGACUCUAGAAAACAUG", "binding signal (log2 enrichment (interaction score))": -7.07}
{"sequence": "GGCUAGAACUAGUGGAUCCCCCGGCGCCCGGCGGCUCGAGCCCGGGUAAGUUCGGGUAGUCUGCAUGCCGCCGGGCGCCAUGCCUGCAGGUCGACUCUAGAAAACAUG", "binding signal (log2 enrichment (interaction score))": "< -7.53"}
